PubChem BioAssay AID588589 (The Scripps Research Institute Molecular Screening Center, 2011)
The source made the active and inactive calls. The rule behind the calls is not given here.

Tested on: Fam108b (ABHD17B) [Mus musculus], recombinant soluble
Test: inhibition of soluble recombinant Fam108b, SAR follow-up, biochemical, gel-based ABPP, soluble form (AID 588589)
Details: fluorophosphonate probe, at 5 µM, stronger effect = higher value

Cc1ccc(-c2nc3c(cnn3-c3ccccc3)c(=O)o2)cc1
inhibition: inactive: 5%
